# Measured values reported in PubChem BioAssay AID493014 (National Center for Advancing Translational Sciences (NCATS), 2011).
# The list shows a part of the results. Further columns of the screen follow, without active or inactive calls. The list favours compounds with an active or inconclusive main result. Words in brackets tell the shape of the fitted curve; partial curves, single points and poor fits give uncertain potencies.
# Test: qHTS Assay to Find Inhibitors of Chronic Active B-Cell Receptor Signaling
# Conditions: ABC-DLBCL IkBa-CBG/CBR reporter, luminescence ratio (green luciferase fused to IkBa over red control in TMD8 lymphoma cells), 4 h
# Summary of the method: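 TMD8 human ABC-DLBCL cells with doxycycline-inducible IκBα–green luciferase fusion and unfused red luciferase, in 0.5% FBS medium; compounds up to 46 uM, 4 h at 37C. Green/red luminescence ratio, filter-overlap corrected, fitted to concentration-response curves.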
# [1] = measured here: CBR red luminescence, cell number
# [2] = measured here: IkBa-CBG green luminescence
SMILES,AC50 [1],AC50 [2]
c1ccc(Oc2cc(-n3cccn3)ncn2)cc1,"2.91 µM [rising, partial curve, poor fit]",–
C=CCN(c1ccccc1)S(=O)(=O)c1cccc(C(=O)OCC(=O)NCCOC)c1,"3.55 µM [rising, partial curve, poor fit]",–
NCC(O)COc1ccc2c(c1)OCO2 (stereo not given),"29.1 µM [rising, single point]",–
COc1ccc(Cl)cc1NC(=O)C/C(C)=N/NC(=O)c1ccc(O)cc1,"0.2 µM [falling, full curve, poor fit]",–
CCc1ccc(C(=O)Nc2ccc3c(c2)n(C)c(=O)n3C)cc1,"35.5 µM [rising, single point]","15.8 µM [falling, single point]"
O=C(N/N=C/c1cc(Br)c(O)c(Br)c1)c1cc2c(ccc3ccccc32)o1,"17.8 µM [falling, single point]",–
Cc1ccc(C)c(NC(=S)NC(C)C(c2ccccc2)N2CCN(C)CC2)c1 (stereo not given),"17.8 µM [falling, single point]",–
COc1ccc(C2(O)CCN(C(=O)NC3CCCCC3)CC2)cc1,"0.891 µM [rising, full curve, poor fit]",–
C[C@@]12C(=O)Nc3ccc(F)cc3C(=O)N1[C@H]1c3cc(Cl)ccc3OC[C@@H]1[C@@H]2c1ccccc1,"2.59 µM [falling, full curve]","3.26 µM [rising, full curve]"
COc1cc(C(=O)NCCOc2cc(C)ccc2C(C)C)cc(OC)c1OC,"11.2 µM [falling, single point]",–
Cc1ccccc1-n1nc(C)c2cc(C(=O)NCc3cccnc3)sc21,"20.6 µM [falling, partial curve, poor fit]",–
COc1cccc(Nc2ncnc3c2cnn3-c2cccc(C)c2)c1,"0.631 µM [falling, partial curve, poor fit]",–
COc1cccc(C(=O)Nc2nnc(-c3cccs3)s2)c1,"1.64 µM [falling, full curve]",–
COc1cc(CN2CCN(Cc3ccco3)CC2)cc(OC)c1,"12.6 µM [falling, single point]",–
COC(=O)c1ccc(N=NNc2cccc(Br)c2)cc1,"0.326 µM [falling, full curve]",–
CN(CCc1ccccn1)C(=S)Nc1ccc(Cl)c(Cl)c1,"6.31 µM [rising, single point]",–
CC1CCN(S(=O)(=O)c2ccc(NC(=O)c3ccncc3)cc2)CC1,"35.5 µM [falling, single point]",–
Cc1ccccc1CSc1nn2c(=O)c(C)nnc2s1,"0.447 µM [falling, full curve, poor fit]",–

# One compound at a time, from the list above. Order of values: AC50 [1] | AC50 [2]
# COc1cccc(Nc2ncnc3c2cnn3-c2cccc(C)c2)c1 is listed as 0.631 µM [falling, partial curve, poor fit] | –
# C=CCN(c1ccccc1)S(=O)(=O)c1cccc(C(=O)OCC(=O)NCCOC)c1 is listed as 3.55 µM [rising, partial curve, poor fit] | –
